This passage reports binding results from publication doi:10.1101/776823.

Amino acid sequences for entries named in this document (tags omitted).
UniProt Q08211: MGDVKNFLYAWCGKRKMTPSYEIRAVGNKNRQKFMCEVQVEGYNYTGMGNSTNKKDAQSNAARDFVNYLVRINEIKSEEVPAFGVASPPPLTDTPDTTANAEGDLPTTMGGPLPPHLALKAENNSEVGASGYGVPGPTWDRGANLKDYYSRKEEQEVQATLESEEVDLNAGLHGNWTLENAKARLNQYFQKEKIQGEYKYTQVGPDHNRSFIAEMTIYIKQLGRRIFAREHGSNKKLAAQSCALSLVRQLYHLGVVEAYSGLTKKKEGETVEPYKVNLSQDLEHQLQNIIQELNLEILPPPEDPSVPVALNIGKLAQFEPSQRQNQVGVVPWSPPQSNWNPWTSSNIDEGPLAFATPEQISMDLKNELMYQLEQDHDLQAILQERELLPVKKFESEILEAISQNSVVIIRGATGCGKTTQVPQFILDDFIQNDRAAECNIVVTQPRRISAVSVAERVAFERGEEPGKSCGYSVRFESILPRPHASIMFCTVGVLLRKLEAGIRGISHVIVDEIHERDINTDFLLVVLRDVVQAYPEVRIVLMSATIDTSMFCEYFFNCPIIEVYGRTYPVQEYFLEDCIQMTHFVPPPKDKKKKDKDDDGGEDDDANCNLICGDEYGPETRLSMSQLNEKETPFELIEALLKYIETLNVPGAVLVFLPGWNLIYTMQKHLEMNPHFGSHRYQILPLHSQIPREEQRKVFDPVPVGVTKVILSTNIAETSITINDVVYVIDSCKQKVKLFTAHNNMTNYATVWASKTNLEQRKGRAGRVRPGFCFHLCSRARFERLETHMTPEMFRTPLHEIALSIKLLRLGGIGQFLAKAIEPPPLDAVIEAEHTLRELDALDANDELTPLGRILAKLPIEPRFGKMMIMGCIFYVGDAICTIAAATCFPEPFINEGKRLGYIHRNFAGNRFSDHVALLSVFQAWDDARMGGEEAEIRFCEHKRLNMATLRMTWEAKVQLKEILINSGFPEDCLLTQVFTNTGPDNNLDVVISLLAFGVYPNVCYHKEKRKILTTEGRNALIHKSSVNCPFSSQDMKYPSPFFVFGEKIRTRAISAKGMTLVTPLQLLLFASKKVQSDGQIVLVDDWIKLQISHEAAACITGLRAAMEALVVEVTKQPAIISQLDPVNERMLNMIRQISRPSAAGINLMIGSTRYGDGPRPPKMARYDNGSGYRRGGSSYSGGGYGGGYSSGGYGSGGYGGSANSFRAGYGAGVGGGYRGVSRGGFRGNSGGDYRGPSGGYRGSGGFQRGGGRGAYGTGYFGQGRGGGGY

The assay addresses GFP-DHX9 (UniProt Q08211). Description: co-IP.

These are yes or no findings as the source states them, for the method shown. In cells and extracts the contact can be indirect. Some binding calls cover weakened binding; strength is not graded here.

B1: USP42 (enzyme, UniProt Q9H9J4 1-1324)
chain: MTIVDKASESSDPSAYQNQPGSSEAVSPGDMDAGSASWGAVSSLNDVSNHTLSLGPVPGAVVYSSSSVPDKSKPSPQKDQALGDGIAPPQKVLFPSEKICLKWQQTHRVGAGLQNLGNTCFANAALQCLTYTPPLANYMLSHEHSKTCHAEGFCMMCTMQAHITQALSNPGDVIKPMFVINEMRRIARHFRFGNQEDAHEFLQYTVDAMQKACLNGSNKLDRHTQATTLVCQIFGGYLRSRVKCLNCKGVSDTFDPYLDITLEIKAAQSVNKALEQFVKPEQLDGENSYKCSKCKKMVPASKRFTIHRSSNVLTLSLKRFANFTGGKIAKDVKYPEYLDIRPYMSQPNGEPIVYVLYAVLVHTGFNCHAGHYFCYIKASNGLWYQMNDSIVSTSDIRSVLSQQAYVLFYIRSHDVKNGGELTHPTHSPGQSSPRPVISQRVVTNKQAAPGFIGPQLPSHMIKNPPHLNGTGPLKDTPSSSMSSPNGNSSVNRASPVNASASVQNWSVNRSSVIPEHPKKQKITISIHNKLPVRQCQSQPNLHSNSLENPTKPVPSSTITNSAVQSTSNASTMSVSSKVTKPIPRSESCSQPVMNGKSKLNSSVLVPYGAESSEDSDEESKGLGKENGIGTIVSSHSPGQDAEDEEATPHELQEPMTLNGANSADSDSDPKENGLAPDGASCQGQPALHSENPFAKANGLPGKLMPAPLLSLPEDKILETFRLSNKLKGSTDEMSAPGAERGPPEDRDAEPQPGSPAAESLEEPDAAAGLSSTKKAPPPRDPGTPATKEGAWEAMAVAPEEPPPSAGEDIVGDTAPPDLCDPGSLTGDASPLSQDAKGMIAEGPRDSALAEAPEGLSPAPPARSEEPCEQPLLVHPSGDHARDAQDPSQSLGAPEAAERPPAPVLDMAPAGHPEGDAEPSPGERVEDAAAPKAPGPSPAKEKIGSLRKVDRGHYRSRRERSSSGEPARESRSKTEGHRHRRRRTCPRERDRQDRHAPEHHPGHGDRLSPGERRSLGRCSHHHSRHRSGVELDWVRHHYTEGERGWGREKFYPDRPRWDRCRYYHDRYALYAARDWKPFHGGREHERAGLHERPHKDHNRGRRGCEPARERERHRPSSPRAGAPHALAPHPDRFSHDRTALVAGDNCNLSDRFHEHENGKSRKRRHDSVENSDSHVEKKARRSEQKDPLEEPKAKKHKKSKKKKKSKDKHRDRDSRHQQDSDLSAACSDADLHRHKKKKKKKKRHSRKSEDFVKDSELHLPRVTSLETVAQFRRAQGGFPLSGGPPLEGVGPFREKTKHLRMESRDDRCRLFEYGQGKRRYLELGR
Consider B1, for which the binding result is recorded as “binds”.
